Reference: patent EP0974057B1

Legend:
[1] = molecular target: hK2 (wild type mature hK2) (human); experiment: hK2 spiked into human serum, Western blot
[2] = molecular target: hK2 (wild type mature hK2) (human); experiment: covalent complex formation, SDS-PAGE and Western blot with HK1G586.1
[3] = molecular target: hK2 (wild type mature hK2) (human); experiment: protease spiked into human serum, Western blot
[4] = molecular target: prostate-specific antigen protein, hK3 (PSA) (human); experiment: protease spiked into human serum, Western blot
[5] = molecular target: hK2 (wild type mature hK2) (human); experiment: covalent complex formation, Western blot with HK1G586.1, legend of Figure 18
[6] = molecular target: prostate-specific antigen protein, hK3 (PSA) (human); experiment: covalent complex formation, SDS-PAGE and Western blot

- binding [1]: binds
- binding [2]: binds
- binding [3]: binds
- binding [4]: binds
- binding [5]: binds
- binding [6]: binds
B1: α2 macroglobulin (MG) (protein, human, UniProt P01023 24-1474, looked up)
chain: SVSGKPQYMVLVPSLLHTETTEKGCVLLSYLNETVTVSASLESVRGNRSLFTDLEAENDVLHCVAFAVPKSSSNEEVMFLTVQVKGPTQEFKKRTTVMVKNEDSLVFVQTDKSIYKPGQTVKFRVVSMDENFHPLNELIPLVYIQDPKGNRIAQWQSFQLEGGLKQFSFPLSSEPFQGSYKVVVQKKSGGRTEHPFTVEEFVLPKFEVQVTVPKIITILEEEMNVSVCGLYTYGKPVPGHVTVSICRKYSDASDCHGEDSQAFCEKFSGQLNSHGCFYQQVKTKVFQLKRKEYEMKLHTEAQIQEEGTVVELTGRQSSEITRTITKLSFVKVDSHFRQGIPFFGQVRLVDGKGVPIPNKVIFIRGNEANYYSNATTDEHGLVQFSINTTNVMGTSLTVRVNYKDRSPCYGYQWVSEEHEEAHHTAYLVFSPSKSFVHLEPMSHELPCGHTQTVQAHYILNGGTLLGLKKLSFYYLIMAKGGIVRTGTHGLLVKQEDMKGHFSISIPVKSDIAPVARLLIYAVLPTGDVIGDSAKYDVENCLANKVDLSFSPSQSLPASHAHLRVTAAPQSVCALRAVDQSVLLMKPDAELSASSVYNLLPEKDLTGFPGPLNDQDNEDCINRHNVYINGITYTPVSSTNEKDMYSFLEDMGLKAFTNSKIRKPKMCPQLQQYEMHGPEGLRVGFYESDVMGRGHARLVHVEEPHTETVRKYFPETWIWDLVVVNSAGVAEVGVTVPDTITEWKAGAFCLSEDAGLGISSTASLRAFQPFFVELTMPYSVIRGEAFTLKATVLNYLPKCIRVSVQLEASPAFLAVPVEKEQAPHCICANGRQTVSWAVTPKSLGNVNFTVSAEALESQELCGTEVPSVPEHGRKDTVIKPLLVEPEGLEKETTFNSLLCPSGGEVSEELSLKLPPNVVEESARASVSVLGDILGSAMQNTQNLLQMPYGCGEQNMVLFAPNIYVLDYLNETQQLTPEIKSKAIGYLNTGYQRQLNYKHYDGSYSTFGERYGRNQGNTWLTAFVLKTFAQARAYIFIDEAHITQALIWLSQRQKDNGCFRSSGSLLNNAIKGGVEDEVTLSAYITIALLEIPLTVTHPVVRNALFCLESAWKTAQEGDHGSHVYTKALLAYAFALAGNQDKRKEVLKSLNEEAVKKDNSVHWERPQKPKAPVGHFYEPQAPSAEVEMTSYVLLAYLTAQPAPTSEDLTSATNIVKWITKQQNAQGGFSSTQDTVVALHALSKYGAATFTRTGKAAQVTIQSSGTFSSKFQVDNNNRLLLQQVSLPELPGEYSMKVTGEGCVYLQTSLKYNILPEKEEFPFALGVQTLPQTCDEPKAHTSFQISLSVSYTGSRSASNMAIVDVKMVSGFIPLKPTVKMLERSNHVSRTEVSSNHVLIYLDKVSNQTLSLFFTVLQDVPVRDLKPAIVKVYDYYETDEFAIAEYNAPCSKDLGNA

Results are given in words; binding and its absence hold for the method and conditions named. A result given as binding can be weak or reduced; the word gives no strength.
